Test results reported in the supplement of paper PMC6411743.
± gives the standard deviation of the averaged measurements. The list shows a part of the results.

Amino acid sequences for entries named in this document (tags omitted). A change or cut given only in a name is not applied to a line headed by its entry.
UniProt O00217, whole entry: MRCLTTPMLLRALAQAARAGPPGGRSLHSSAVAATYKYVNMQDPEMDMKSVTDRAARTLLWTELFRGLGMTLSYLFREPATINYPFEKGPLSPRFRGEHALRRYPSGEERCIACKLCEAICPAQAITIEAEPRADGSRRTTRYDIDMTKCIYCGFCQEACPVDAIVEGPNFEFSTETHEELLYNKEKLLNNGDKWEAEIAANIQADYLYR
UniProt P23743: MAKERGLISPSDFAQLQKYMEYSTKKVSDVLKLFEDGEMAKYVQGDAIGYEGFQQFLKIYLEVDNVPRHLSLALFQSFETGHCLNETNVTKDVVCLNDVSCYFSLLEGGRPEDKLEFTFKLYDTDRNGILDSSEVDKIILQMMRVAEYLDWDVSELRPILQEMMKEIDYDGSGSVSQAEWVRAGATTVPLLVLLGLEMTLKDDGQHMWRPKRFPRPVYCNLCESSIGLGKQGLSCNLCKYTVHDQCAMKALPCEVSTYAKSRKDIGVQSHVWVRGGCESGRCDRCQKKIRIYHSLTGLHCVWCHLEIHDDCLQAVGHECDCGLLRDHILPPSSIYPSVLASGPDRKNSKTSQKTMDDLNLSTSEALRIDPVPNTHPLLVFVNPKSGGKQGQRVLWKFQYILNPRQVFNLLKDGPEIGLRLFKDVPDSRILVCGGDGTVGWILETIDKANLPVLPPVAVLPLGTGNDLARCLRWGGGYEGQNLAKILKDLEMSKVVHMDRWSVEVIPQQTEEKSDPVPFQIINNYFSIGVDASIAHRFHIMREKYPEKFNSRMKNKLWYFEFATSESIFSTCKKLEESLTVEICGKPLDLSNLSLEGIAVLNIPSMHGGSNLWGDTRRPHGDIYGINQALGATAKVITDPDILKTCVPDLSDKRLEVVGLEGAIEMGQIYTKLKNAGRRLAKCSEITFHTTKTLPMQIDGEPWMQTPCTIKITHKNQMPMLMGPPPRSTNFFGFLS
UniProt P19440: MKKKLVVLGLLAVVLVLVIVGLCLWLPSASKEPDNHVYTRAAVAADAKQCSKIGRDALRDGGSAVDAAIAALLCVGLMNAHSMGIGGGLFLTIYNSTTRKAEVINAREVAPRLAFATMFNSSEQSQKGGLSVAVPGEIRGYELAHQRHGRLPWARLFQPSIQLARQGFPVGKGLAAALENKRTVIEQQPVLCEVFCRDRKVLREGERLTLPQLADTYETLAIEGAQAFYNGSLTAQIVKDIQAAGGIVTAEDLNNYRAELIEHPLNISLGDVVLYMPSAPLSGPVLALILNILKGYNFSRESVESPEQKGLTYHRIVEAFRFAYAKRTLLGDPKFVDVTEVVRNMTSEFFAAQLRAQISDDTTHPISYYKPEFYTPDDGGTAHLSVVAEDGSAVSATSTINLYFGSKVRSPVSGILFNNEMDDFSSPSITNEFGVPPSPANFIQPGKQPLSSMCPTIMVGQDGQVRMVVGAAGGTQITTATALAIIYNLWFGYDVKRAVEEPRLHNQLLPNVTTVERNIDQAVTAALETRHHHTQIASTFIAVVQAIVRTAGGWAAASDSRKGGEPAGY
UniProt Q96EK7: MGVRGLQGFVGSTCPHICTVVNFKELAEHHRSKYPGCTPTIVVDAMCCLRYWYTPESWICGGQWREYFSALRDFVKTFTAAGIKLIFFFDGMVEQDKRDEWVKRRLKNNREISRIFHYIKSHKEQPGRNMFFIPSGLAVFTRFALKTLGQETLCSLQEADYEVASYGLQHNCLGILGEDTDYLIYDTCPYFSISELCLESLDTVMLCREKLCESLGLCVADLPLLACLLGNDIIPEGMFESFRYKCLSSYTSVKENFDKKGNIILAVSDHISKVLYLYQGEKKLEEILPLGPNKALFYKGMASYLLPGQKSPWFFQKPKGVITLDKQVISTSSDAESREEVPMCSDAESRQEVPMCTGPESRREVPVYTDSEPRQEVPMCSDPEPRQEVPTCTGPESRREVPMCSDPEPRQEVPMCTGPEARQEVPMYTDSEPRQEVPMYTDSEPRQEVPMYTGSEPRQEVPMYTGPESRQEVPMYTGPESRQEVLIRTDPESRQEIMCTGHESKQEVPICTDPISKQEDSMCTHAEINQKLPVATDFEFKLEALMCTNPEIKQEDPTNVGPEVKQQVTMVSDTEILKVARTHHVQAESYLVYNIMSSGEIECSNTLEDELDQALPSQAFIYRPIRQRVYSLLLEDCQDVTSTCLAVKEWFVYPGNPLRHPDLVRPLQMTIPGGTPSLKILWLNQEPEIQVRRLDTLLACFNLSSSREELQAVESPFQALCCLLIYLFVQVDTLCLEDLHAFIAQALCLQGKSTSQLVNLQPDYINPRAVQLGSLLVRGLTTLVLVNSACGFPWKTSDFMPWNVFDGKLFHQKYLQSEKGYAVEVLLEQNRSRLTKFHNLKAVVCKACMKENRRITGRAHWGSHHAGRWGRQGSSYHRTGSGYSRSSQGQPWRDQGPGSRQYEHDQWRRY

Compound: Nc1nc2c(ncn2[C@@H]2O[C@H](COP(=O)(O)OP(=O)(O)OP(=O)(O)O)[C@@H](O)[C@H]2O)c(=O)[nH]1 [guanosine triphosphate]
Test: NP40-soluble protein abundance relative to vehicle (solubility fold change) (ratio); higher = more soluble protein in presence of GTP
Experimental: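 Solubility proteome profiling in Jurkat crude lysate. Lysate was treated with Mg-GTP (0.1-10 mM) for 10 min at room temperature and 3 min at 37 °C, then solubilised with 0.8% NP40 and benzonase, followed by ultracentrifugation. Proteins were quantified by TMT10 LC-MS/MS; the value is the NP40-soluble abundance relative to the NP40-processed vehicle, from 3 independent experiments.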

| Target | NP40-soluble protein abundance (concentration: 0.1mM) | NP40-soluble protein abundance (concentration: 0.5mM) | NP40-soluble protein abundance (concentration: 1mM) | NP40-soluble protein abundance (concentration: 2mM) | NP40-soluble protein abundance (concentration: 4mM) | NP40-soluble protein abundance (concentration: 6mM) | NP40-soluble protein abundance (concentration: 8mM) | NP40-soluble protein abundance (concentration: 10mM) |
| --- | --- | --- | --- | --- | --- | --- | --- | --- |
| E7EVY0 and related entries (UniProt Q15070) | 1.07 ± 0.039 | 0.993 ± 0.033 | 1.05 ± 0.033 | 1.04 ± 0.06 | 1.11 ± 0.086 | 1.02 ± 0.078 | 1.04 ± 0.066 | 0.979 ± 0.036 |
| E9PPW7 and related entries (UniProt O00217) | 1.05 ± 0.13 | 1.12 ± 0.15 | 1.11 ± 0.18 | 1.09 ± 0.12 | 1.08 ± 0.095 | 1.09 ± 0.13 | 1.18 ± 0.21 | 1.1 ± 0.13 |
| G3V4E1 and related entries (UniProt P23743) | 1.12 ± 0.084 | 1.14 ± 0.11 | 1.08 ± 0.096 | 1.07 ± 0.13 | 1.1 ± 0.11 | 1.06 ± 0.074 | 1.03 ± 0.07 | 0.979 ± 0.088 |
| E7ET76 and related entries (UniProt P19440) | 0.882 ± 0.18 | 0.902 ± 0.2 | 0.902 ± 0.2 | 0.879 ± 0.17 | 0.923 ± 0.15 | 0.916 ± 0.095 | 0.92 ± 0.12 | 0.927 ± 0.15 |
| F5GY05 (UniProt Q96EK7) | 1.06 ± 0.034 | 1 ± 0.11 | 1.01 ± 0.036 | 1.06 ± 0.083 | 1 ± 0.047 | 0.99 ± 0.042 | 1.05 ± 0.083 | 1.05 ± 0.13 |
